PMC7055376, “Evidence for binary Smc complexes lacking kite subunits in archaea” (IUCrJ, 2020)
Results are given in words; binding and its absence hold for the method and conditions named. For some of these results: A result given as binding can be weak or reduced; the word gives no strength. Where a sequence is shown, tags or fusion partners need not be part of it. Values belong to the molecule of their own block, whether it stands above or below them.

Legend:
[1] = molecular target: T1, (His)10-MBP-tagged Methanothrix soehngenii ScpA (Methanothrix soehngenii) (UniProt F4BYM3); experiment: pull-down; (His)10 pull-down on Ni-NTA resin; (His)10-MBP-tagged ScpA held, untagged putative ScpB, 1 µM each; 20 mM Tris-HCl pH 7.5, 100 mM NaCl, 25°C, 10 min; wash with 30 mM imidazole; denaturing PAGE; both purified
T1 sequence: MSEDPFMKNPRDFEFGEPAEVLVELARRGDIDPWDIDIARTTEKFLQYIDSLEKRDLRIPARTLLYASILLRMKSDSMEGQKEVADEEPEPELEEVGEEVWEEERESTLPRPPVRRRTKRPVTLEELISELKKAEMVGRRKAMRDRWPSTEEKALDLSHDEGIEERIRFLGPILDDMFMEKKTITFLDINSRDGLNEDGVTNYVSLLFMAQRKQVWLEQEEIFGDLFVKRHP

[2] = molecular target: T1, (His)10-MBP-tagged Methanothrix soehngenii ScpA (Methanothrix soehngenii); experiment: SEC; mixture of (His)10-MBP-tagged ScpA and ScpB homologue on Superdex 200 Increase 10/300 GL; 20 mM Tris-HCl pH 7.5, 100 mM NaCl, 1 mM DTT, 4°C; 10 µM each in 100 µl; both purified
[3] = molecular target: T2, (His)10-GST-tagged B. subtilis ScpA^N (BsScpA^N) (Bacillus subtilis) (UniProt P35154); experiment: pull-down; (His)10 pull-down on Ni-NTA resin; (His)10-GST-ScpA^N held, SmcHd-CC in a 1:1 molar ratio (20 µM); wash with 30 mM imidazole; SDS-PAGE; both purified
T2 sequence: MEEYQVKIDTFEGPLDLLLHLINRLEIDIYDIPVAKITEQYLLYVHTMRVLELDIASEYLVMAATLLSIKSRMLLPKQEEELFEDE

[4] = molecular target: (His)10-MBP-tagged Methanosalsum zhilinae ScpA (Methanosalsum zhilinae); experiment: SEC; mixture of (His)10-MBP-tagged ScpA and ScpB homologue on Superdex 200 Increase 10/300 GL; 20 mM Tris-HCl pH 7.5, 100 mM NaCl, 1 mM DTT, 4°C; 10 µM each in 100 µl; both purified
[5] = molecular target: (His)10-MBP-tagged Methanosalsum zhilinae ScpA (Methanosalsum zhilinae); experiment: pull-down; (His)10 pull-down on Ni-NTA resin; (His)10-MBP-tagged ScpA held, untagged putative ScpB, 1 µM each; 20 mM Tris-HCl pH 7.5, 100 mM NaCl, 25°C, 10 min; wash with 30 mM imidazole; denaturing PAGE; both purified
[6] = molecular target: (His)10-MBP-tagged Methanofollis liminatans ScpA (MlScpA) (Methanofollis liminatans); experiment: SEC; mixture of (His)10-MBP-tagged ScpA and ScpB homologue on Superdex 200 Increase 10/300 GL; 20 mM Tris-HCl pH 7.5, 100 mM NaCl, 1 mM DTT, 4°C; 10 µM each in 100 µl; both purified
[7] = molecular target: (His)10-MBP-tagged Methanofollis liminatans ScpA (MlScpA) (Methanofollis liminatans); experiment: pull-down; (His)10 pull-down on Ni-NTA resin; (His)10-MBP-tagged ScpA held, untagged putative ScpB, 1 µM each; 20 mM Tris-HCl pH 7.5, 100 mM NaCl, 25°C, 10 min; wash with 30 mM imidazole; denaturing PAGE; both purified

binding [1]: no binding (tested: 1 µM each)
binding [2]: no binding (tested: 10 µM each)
Molecule: MCON_2432 (putative Methanothrix soehngenii ScpB), untagged

binding [4]: no binding (tested: 10 µM each)
binding [5]: no binding (tested: 1 µM each)
B1: Mzhil_1996 (putative Methanosalsum zhilinae ScpB), untagged (protein, UniProt F7XKW0 1-364)
chain: MNHKEIVEAALFVAGDGVNIKSLAKIVNIPEKNVIDTVRSLMEEYSSRETGLEIVETGEKRYVMQVKPRYSDIVSRLAPGEIKSPVLRTLSMIAYHQPIAQSELVDIRGNSVYEHIRELKDRGLVNAAPHGRTRILQTTPLFAEYFGIDSNDPESIRKKIIELSRKQSGSVGLDRWLGRRVVAITPMYESLMEMCGIEDYRVLNVYSPDEDELDSLADVYRLIVSRGYSEQVSRYYDGEIIEIGSTTFNDLIDSIQSLEDIYDSDKARESIEKIKELRERYVSKAMVIDRKVKPATDMISRIVSDLHIGVSSTGVVIAPDYGVSSNGVDVSHDARILVPTHEKEGSLIERVCRKYDAVIDGLKE

Second part, the molecule before the results:

Molecule: B. subtilis Smc head domain with a 30-residue coiled-coil stretch (BsSmcHd-CC30) (Bacillus subtilis) (domain or fragment)
binding [3]: binds

B2: Metli_0606 (sole ScpB homologue of Methanofollis liminatans), untagged (natural protein, UniProt J1ANV5 1-161, looked up)
chain: MVDRTAMLEAALFVADAPVSYGDLAKIFGIKPGEVPALAQELSGRLSARSSPLEVIDSGESVFMVLKEEYAVLVYPVMRPEISRAVLRTLSVIAYRQPILQSDLIEIRGGGAYAHVEELVKRDLVARYRSGRSYLLQTTPEFSRYFKTSDLVGGQGRLDID
notes: ScpB homologue Metli_0606 of Methanofollis liminatans; untagged in the assays; also called ScpB homologue Metli_0606; source: E. coli BL21 (DE3) RIPL, purified
binding [6]: no binding (tested: 10 µM each)
binding [7]: no binding (tested: 1 µM each)
